{
  "source": "PubChem BioAssay AID624297",
  "about": "(National Center for Advancing Translational Sciences (NCATS), 2012)",
  "note": "Screen size: about 340,000 compounds; about 6,200 (1.8%) were called active. Inconclusive results, whose numbers are uncertain, are shown with a selection of clear calls. The call rests on the fitted dose curve; in most records, active means well fitted activation curve with a large enough effect; inconclusive means small, poorly fitted or top-dose-only effect; inactive means no such curve, though single readings can be large or run the other way. A potency beside an inconclusive call is a rough fit, not a confirmed value. Where a structure was tested more than once in an assay, its records may differ in their call. Potency means the concentration at half of the fitted maximal effect.",
  "data": [
    {"experiment": "A quantitative high throughput screen for small molecules that induce DNA re-replication in SW480 colon adenocarcinoma cells; further: nearly all actives have a fitted effect of over 55% in size; on re-replication activation: % of control where 0% means no effect.", "conditions": "Hoechst DNA content imaging, 48 h; re-replication activation: at 46.1 µM (top of the series) unless noted", "method_in_brief": "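Treated cells incubate 48 hr (37 C, 5% CO2), are stained 40 min with Hoechst, and nuclear fluorescence is enumerated; a rise in nuclei with high DNA signal marks re-replication.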", "values": [
      {"smiles": "Cc1cccc(NC(=O)CSCC(=O)N(C)Cc2ccc(Cl)c(Cl)c2)c1", "Potency": "inconclusive: 29.1 µM [activator, single point]"},
      {"smiles": "COc1ccc(Cl)cc1C(=O)OCC(=O)NCCNC(=O)COC(=O)c1cc(Cl)ccc1OC", "Potency": "inconclusive: 0.651 µM [activator, partial curve, poor fit]"},
      {"smiles": "COc1ccc(CC(=O)Nc2cc(S(=O)(=O)N3CCOCC3)ccc2N2CCOCC2)cc1", "Potency": "inconclusive: 36.6 µM [activator, partial curve, poor fit]"},
      {"smiles": "CCN(C[C@H]1N[C@@](C)(C(=O)OC)[C@H]2C(=O)N(Cc3ccccc3)C(=O)[C@@H]12)C(=O)c1ccc(C(C)(C)C)cc1", "Potency": "inconclusive: 1.84 µM [activator, partial curve, poor fit]"},
      {"smiles": "CCn1cc(/C=N/NC(=O)c2cc3c(ccc4ccccc43)o2)c2ccccc21", "Potency": "inconclusive: 29.1 µM [activator, single point]"},
      {"smiles": "Cc1[nH]n(-c2ccccc2)c(=O)c1N=Nc1ccc(C(N)=O)cc1", "re-replication activation": "inactive: -4.35% [at 9.22 µM]"},
      {"smiles": "CC(C)=CCC/C(C)=C/CNC(=O)C[C@H]1C[C@H](C(=O)N2CCOCC2)[C@@]2(CCC3CCCC3)c3[nH]c4cc(CCC(=O)N(C)C)ccc4c3CCN2C1=O", "Potency": "inconclusive: 23.1 µM [activator, single point]"},
      {"smiles": "COCCn1c(N)c(N(Cc2ccccc2)C(=O)c2cc3ccccc3o2)c(=O)[nH]c1=O", "re-replication activation": "inactive: -5.1%"},
      {"smiles": "COc1ccc(OC)c(NC(=O)COc2coc(CN3CCCc4ccccc43)cc2=O)c1", "Potency": "inconclusive: 29.1 µM [activator, single point]"},
      {"smiles": "COc1cc(OC)c([N+](=O)[O-])cc1/C=N/NC(=O)c1ccncc1", "Potency": "inconclusive: 18.4 µM [activator, single point]"},
      {"smiles": "CCOc1cc(C2C3=C(CC(C)(C)CC3=O)N(C)C3=C2C(=O)CC(C)(C)C3)ccc1O", "Potency": "inconclusive: 14.6 µM [activator, single point]"},
      {"smiles": "C=CCC[C@H](Cc1ccc(F)cc1)C(=O)OC[C@@H](Cc1c[nH]c2ccccc12)NC(=O)[C@H](CC=C)CC(=O)N(CCO)Cc1ccccc1", "Potency": "inconclusive: 29.1 µM [activator, single point]"},
      {"smiles": "O=C(Nc1ccc(F)cc1)c1cccnc1Oc1ccccc1", "re-replication activation": "inactive: -0.17%"},
      {"smiles": "CCc1cc(=O)oc2c3c(cc(OCC(=O)Nc4cccnc4)c12)OC(C)(C)CC3", "re-replication activation": "inactive: 0.327%"},
      {"smiles": "CN(C)CC1CCCCC1C1(O)c2ccccc2CSc2sccc21", "note": "(stereo not given)", "Potency": "inconclusive: 31.6 µM [activator, single point]"},
      {"smiles": "Cc1ccc(C)c(NC(=O)c2cc(-c3ccccc3)nn2-c2ccccc2)c1", "Potency": "inconclusive: 29.1 µM [activator, partial curve, poor fit]"},
      {"smiles": "O=C(C1CCCN(S(=O)(=O)c2ccccc2)C1)N1CCCCCC1", "note": "(stereo not given)", "Potency": "active: 0.517 µM"},
      {"smiles": "COc1ccc(CCNC(=S)Nc2ccc(S(=O)(=O)Nc3ncccn3)cc2)cc1OC", "Potency": "inconclusive: 6.51 µM [activator, single point]"},
      {"smiles": "CCN1CCN(CCCNC(=O)CCC(=O)N2CCOc3ccc(Cl)cc32)CC1", "re-replication activation": "inactive: -18.5%"},
      {"smiles": "Cc1ccc(C)n1-c1ccc(C(=O)Nc2ccccc2)cc1", "Potency": "inconclusive: 11.6 µM [activator, partial curve, poor fit]"},
      {"smiles": "CC1CCN(S(=O)(=O)c2ccc(NC(=O)CN3CCCCCC3)cc2)CC1", "Potency": "inconclusive: 29.1 µM [activator, single point]"},
      {"smiles": "Cc1ccc(Cc2cnc(N)s2)o1", "Potency": "inconclusive: 29.1 µM [activator, single point]"},
      {"smiles": "C=CCN1C(=O)c2ccc(C(=O)N(C)CC(=O)Nc3c(C)cccc3C)cc2C1=O", "re-replication activation": "inactive: -3.97%"},
      {"smiles": "Cc1cc(NC(=O)c2ccc(Cl)cc2Cl)no1", "Potency": "inconclusive: 11.6 µM [activator, partial curve, poor fit]"},
      {"smiles": "CN1CCN(c2ccc(S(=O)(=O)N3CCCCC3)cc2NC(=O)/C=C/c2ccc(Cl)c([N+](=O)[O-])c2)CC1", "Potency": "inconclusive: 25.9 µM [activator, single point]"},
      {"smiles": "COc1ccc(N2CCN(c3nccs3)CC2)cc1", "re-replication activation": "inactive: -33.7%"},
      {"smiles": "COc1ccc(-c2noc(CSc3nc(N)cc(=O)[nH]3)n2)cc1", "re-replication activation": "inactive: -5.45%"},
      {"smiles": "COc1ccc(CN(C)Cc2c(O)ccc3cc(Br)ccc23)cc1OC", "re-replication activation": "inactive: 2.49%"},
      {"smiles": "COc1ccc(NC(=O)CN(c2cccc(F)c2)S(C)(=O)=O)cc1OC", "Potency": "inconclusive: 29.1 µM [activator, partial curve, poor fit]"},
      {"smiles": "O=C(CCc1nnc(-c2ccsc2)o1)N1CCc2c(Cl)cccc2C1", "re-replication activation": "inactive: -4.34%"},
      {"smiles": "Cc1ccc(S(=O)(=O)Nc2cccc3cccnc23)c([N+](=O)[O-])c1", "Potency": "active: 18.4 µM"},
      {"smiles": "COc1ccc(C(CC(=O)N2CCCC2)c2c(OC)cc(OC)c3c(-c4ccccc4)cc(=O)oc23)cc1", "note": "(stereo not given)", "Potency": "inconclusive: 16.4 µM [activator, single point]"},
      {"smiles": "CC(C)C(NC(=O)C(NC(=O)C1O[C@@H]2OC(C)(C)O[C@@H]2[C@H]2OC(C)(C)O[C@@H]12)C(C)C)C(=O)O", "note": "(stereo not given in full)", "Potency": "inconclusive: 5.17 µM [activator, full curve, poor fit]"},
      {"smiles": "O=C(NC1CCCC1)C1CC(=O)N(CCc2ccccc2)C1", "note": "(stereo not given)", "Potency": "inconclusive: 29.1 µM [activator, partial curve, poor fit]"},
      {"smiles": "Cc1cc(C)cc(C(=O)NCC(=O)N2CCN(C(c3ccccc3)c3ccccc3)CC2)c1", "Potency": "inconclusive: 20.6 µM [activator, single point]"},
      {"smiles": "N#CCC1c2ccccc2CCN1C(=O)Nc1ccc(Cl)cc1", "note": "(stereo not given)", "re-replication activation": "inactive: -3.08%"},
      {"smiles": "CCOc1ccc(C2C(C#N)=C(N)N(N(C)C)C3=C2C(=O)CC(C)(C)C3)cc1", "note": "(stereo not given)", "Potency": "inconclusive: 23.1 µM [activator, single point]"},
      {"smiles": "COc1ccc(N(CC(=O)NCCSc2ccccc2)S(=O)(=O)c2ccccc2)c(OC)c1", "Potency": "inconclusive: 29.1 µM [activator, partial curve, poor fit]"},
      {"smiles": "Cn1c2ccccc2c2c(C(=O)NCc3ccco3)cn(C3CCCCC3)c(=O)c21", "Potency": "inconclusive: 29.1 µM [activator, partial curve, poor fit]"},
      {"smiles": "O=C(O)c1ccc(-c2ccc(/C=C3\\NC(=O)N(Cc4ccc(Cl)cc4)C3=O)o2)cc1", "Potency": "active: 10.3 µM"},
      {"smiles": "CNC(=O)c1cc(Oc2ccc(NC(=O)Nc3ccc(Cl)c(C(F)(F)F)c3)cc2)ccn1", "Potency": "inconclusive: 33.5 µM [activator, single point]"},
      {"smiles": "O=c1[nH]c(C2C3CC4CC(C3)CC2C4)nc2ccccc12", "note": "(stereo not given)", "Potency": "inconclusive: 20.6 µM [activator, partial curve, poor fit]"},
      {"smiles": "COc1ccc(OC)c([N+](=O)[O-])c1C(N)=O", "re-replication activation": "inactive: -2.61%"},
      {"smiles": "COc1cccc(-c2cc(-c3cccnc3)nc(N)c2C#N)c1", "Potency": "inconclusive: 29.1 µM [activator, single point]"},
      {"smiles": "FC(F)(F)c1nc2ccccc2nc1N/N=C\\c1ccccc1", "re-replication activation": "inactive: 0.703%"},
      {"smiles": "COc1ccc(N2C(=O)C(C)(C)C2c2c(O)ccc3ccccc23)cc1", "note": "(stereo not given)", "Potency": "inconclusive: 29.1 µM [activator, single point]"},
      {"smiles": "Cc1ccc(-n2nc(C)c3c(C)c(CCC(=O)Nc4ccc(CN5CCCC5)cc4)c(C)nc32)cc1", "Potency": "inconclusive: 20.6 µM [activator, single point]"},
      {"smiles": "Cc1ccc(-c2csc(-c3c[nH]c4ccccc34)n2)cc1", "Potency": "inconclusive: 6.51 µM [activator, single point]"},
      {"smiles": "C/C(=C\\c1ccc(Cl)cc1)C(=O)c1c(C)cc(C)[nH]c1=O", "Potency": "inconclusive: 29.1 µM [activator, single point]"},
      {"smiles": "O=C(c1ccc(Cl)c(S(=O)(=O)N2CCOCC2)c1)N1CCCCC1", "Potency": "inconclusive: 23.1 µM [activator, single point]"},
      {"smiles": "O=C(NCc1cccs1)C1CCN(c2ccc(S(=O)(=O)N3CCOCC3)cc2Cl)CC1", "Potency": "active: 1.3 µM"},
      {"smiles": "CC(C)CC(COCc1ccc(Cl)cc1)N1CCN(C(=O)c2cccc(C(F)(F)F)c2)CCC1=O", "note": "(stereo not given)", "re-replication activation": "inactive: -6.71%"},
      {"smiles": "CN(C)c1ccc(/C=C(\\C#N)C(=O)c2ccccc2)cc1", "re-replication activation": "inactive: -5.63%"},
      {"smiles": "Cc1ccc(N2CC(C(=O)Nc3ccccc3C(=O)NC3CCCCC3)CC2=O)cc1C", "note": "(stereo not given)", "Potency": "inconclusive: 2.31 µM [activator, full curve, poor fit]"},
      {"smiles": "Cc1ccc(C(=O)NNS(=O)(=O)c2ccc(F)cc2)cc1", "re-replication activation": "inactive: -2.12%"},
      {"smiles": "O=C(CSc1ncnc2c1nnn2Cc1ccc(F)cc1)NCC1CCCO1", "note": "(stereo not given)", "Potency": "inconclusive: 18.4 µM [activator, single point]"},
      {"smiles": "CCC(CC)C(=O)Nc1cccc(C(=O)Nc2ccc(S(N)(=O)=O)cc2)c1", "Potency": "inconclusive: 29.1 µM [activator, single point]"},
      {"smiles": "O=C(CCc1ccccc1)NC(=S)Nc1cc(C(F)(F)F)ccc1N1CCOCC1", "Potency": "inconclusive: 16.4 µM [activator, partial curve, poor fit]"},
      {"smiles": "Cc1ccc(C)c(S(=O)(=O)N2CCN(C(=O)C3CCN(c4ncnc5sc(C)c(C)c45)CC3)CC2)c1", "Potency": "active: 20.6 µM"},
      {"smiles": "C=CCOC(=O)c1sc(NC(=O)c2ccc(OC)cc2)nc1C", "re-replication activation": "inactive: 0.381%"},
      {"smiles": "COC(=O)C1=C(C)NC(=O)NC1c1cn(-c2ccccc2)nc1-c1cccs1", "note": "(stereo not given)", "re-replication activation": "inactive: -0.892%"},
      {"smiles": "COC(=O)C1=CN(CCOC23CC4CC(CC(C4)C2)C3)C=C(C(=O)OC)C1c1ccsc1", "Potency": "inconclusive: 20.6 µM [activator, single point]"},
      {"smiles": "Cc1ccc(NC(=S)N(CCN(C)C)C(C)c2ccco2)cc1Cl", "note": "(stereo not given)", "re-replication activation": "inactive: -3.86%"},
      {"smiles": "CCCCCCn1c(SCC(=O)Nc2cc(C)on2)nc2ccccc2c1=O", "Potency": "inconclusive: 20 µM [activator, single point]"},
      {"smiles": "COc1ccc(-n2nc(C(=O)NCC(=O)Nc3ccccn3)c3ccccc3c2=O)cc1", "Potency": "inconclusive: 29.1 µM [activator, single point]"}
    ]}
  ]
}
